Source: PubChem BioAssay AID1347423 (Functional Genomics Laboratory (NCATS/FGL), 2020)
Out of some 52,000 sequences screened, about 210 (0.4%) were called active.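 The calls were made as follows: active = gene whose silencing raises cell survival under the drug, median off-target-corrected z-score across its silencing RNAs 2 or more; inactive = the rest.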 Some of the results follow.

Assay: Resistance to Poly (ADP-Ribose) Polymerase inhibitor: Gene Identification via Genome-wide siRNA Screen
Settings: mouse BRCA2 R2336H ES cells, olaparib, CellTiter-Glo viability; stronger effect = higher value
Procedure, shortened: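 Genome-wide siRNA screen (3 siRNAs/gene, 20 nM) in mouse ES cells carrying hypomorphic BRCA2 R2336H; olaparib 500 nM added 48 h post-transfection, CellTiter-Glo viability 72 h later. Normalized to plate-median negative control; MAD z-scores, gene median, seed-adjusted.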

Sequence | z-score
GGUGUUUCUGUUCUGAUUCTT against Olfr703 | inactive: -0.205
GGACUUCUUCAGAAACAGCTT against Gtf2a1lf | inactive: 0.0816
GGAAUUUUCCAACAUGGACTT against 4933406E20Rik | inactive: -0.735
GCUAGCAUAGUCAAAAACUTT against Ptges | inactive: 1.47
GGCCAUCGAAAAGAAUGUGTT against Prkar1a | inactive: 1.58
GACCUUCCAGGUCAAGUUGTT against Plcg1 | inactive: 0.621
CCCUCCAGAAAAACAGUUUTT against Sssca1 | inactive: -0.229
GGCCAUCGAACUCAAUCUCTT against 2810002D13Rik | inactive: 0.717
GGUUAAUUCCUUCAUUGCCTT against Gpr1 | inactive: -0.744
GGCCUAUGCGAAAAUCUGUTT against Camk2b | inactive: -0.286
GCAAUCAUUUUAGCAUGUGTT against Tas2r129 | inactive: 0.636
CCAUCAAAACUUACCUCACTT against AA408556 | inactive: -2.4
GCCAGUUUGUGUGCAAAAATT against Lrp1 | inactive: 1.06
GCGAUGUUAAUUCCUAUUATT against Nhlrc1 | inactive: -0.324
GCGGACACUAAUGAACCUGTT against Tagln2 | inactive: -0.395
GGAAAUAAUAUUCCUGGGATT against 4632409L19Rik | inactive: 0.905
GGACUUCAUGAAGAACCUATT against Myo1g | inactive: 0.718
GCCAUUACUUAACUCAUAATT against 4930432O21Rik | inactive: -1.11
GGAUCACCCAUCAAAUAUATT against Oxct1 | inactive: 0.234
CCGGCUUCUGGUACUAUACTT against BC025458 | inactive: -0.0289
GGAUGGGCAAAAAGUUGACTT against Timm13a | inactive: 0.634
GGUCACUGACAGGUACCAUTT against E130018O15Rik | inactive: -0.0366

Sequence | z-score
CCCUAAAUUAGCACAGUUUTT against 0610012H03Rik | inactive: -1.97
CCAGAAGAACAAGGAAGUATT against MGC129481 | inactive: -0.589
GGUGUACUCUGUUCCCAUGTT against Psmb6 | inactive: -2.12
GGUGUGUUACAACCAUUUGTT against Hsd17b9 | inactive: -0.913
GGAAACUGUAGAGAACAUUTT against Csnd | inactive: -2.68
GCAUACAUAGCACUACAUATT against Olfr536 | inactive: -0.0396
GCCCUUUGAAGCCUUUGAGTT against Chchd5 | inactive: -0.579
GGCAUCUUGGCACUCUACUTT against 1810059G22Rik | inactive: -2.69
GGACUAUUCUGAGAAUCCCTT against Olfr821 | inactive: 0.68
CCGCAUAUUUGGAAUACGATT against 1200003O06Rik | inactive: 0.862
GGGUCAGUGAAAAGAUCAGTT against Olfr433 | inactive: 1.79
GGACAGGAGCUGUUUGACCTT against Epb4.1l5 | inactive: -0.236
GCCACCAUUCGGAAAUUUGTT against 5730427C23Rik | inactive: 0.263
CCUAUGUGAAAAAAACUGCTT against Olfr1026 | inactive: 0.345
GGAUGAGCUGAGGAAAUCCTT against Psd2 | inactive: 0.976
CGAUAUUGGUGGAUUCUUUTT against Cntnap1 | inactive: -0.473
GCAACCAGAAAUUAGAACATT against 3830403N18Rik | inactive: -0.646
GGAUCAAUCCACAGACGACTT against Dbr1 | inactive: -0.904
GCCAUUAAUCCUCUCAUCUTT against Edg6 | inactive: 1.48
GCCGUAUUCAUUAAUAAAGTT against Ash1l | inactive: 2.6
GGGAAUAUUAGAAACCCUATT against Camkk1 | inactive: -1.07
GCUGAAAUACCACUCUCCGTT against Chl1 | active: -1.28

Sequence | z-score
GGAAUCAACUUCAUGGUCUTT against Mrpl18 | inactive: -0.066
GGAUUUGUGCACGUGAUCUTT against Adam5 | inactive: -2.59
CCAAACAAUCUUACAGGAATT against Olfr415 | inactive: -1.51
GGGAAUGGUUUCUUGAAAUTT against Pigk | inactive: 0.991
GCACACAAGUCUCUGAAUUTT against Ipo7 | inactive: -2.07
GGUUAAUCAUCUAGAUUACTT against E230019M04 | inactive: 1.74
GGAAUACAGCCCUAACCUCTT against Efnb3 | inactive: -0.0343
GGAAACUUACCACUACUAUTT against Tm9sf1 | inactive: -0.782
GGACACAGAGAAAAAAAAATT against Apeh | inactive: 1.58
CCUGCUGUUGAGCUUCACATT against Adra1b | inactive: -0.252
CCUAAGAUGAUCGUAGGCUTT against Olfr1221 | inactive: -1.73
GGACUGUGAACAACUUUCGTT against 1810011O10Rik | inactive: -0.585
GGUGUCAGAGGUAUUUUCATT against Biklk | inactive: 2.56
GGCCUAUUCAAUGGCGUGATT against Hapln3 | inactive: -0.00598
CCAGUAUGGCUUAAAGACCTT against Bglap-rs1 | inactive: -0.542
CCACGGUUAUGAUGACGACTT against Dyrk1b | inactive: 0.37
UUUUGUUCUCAAAGGAAUATT against Olfr194 | inactive: -0.797
GGAACUCCUGGAGCAGAACTT against 1110003P22Rik | inactive: 0.447
CCAACAAAUUCUGGUGGGATT against D630044F24Rik | inactive: -1.13
GGCUAUUUCAGGUUCAAGATT against Tnfrsf9 | inactive: 2.42
CGCAAAAUAAAGAGGUGGCTT against Dhrs3 | inactive: 1.08
GGAAUUUGAAUCACGUUUGTT against Hprt1 | inactive: 0.566

Three entries drawn at random from the list so far, as already listed:
Sequence | z-score
GGUGUACUCUGUUCCCAUGTT against Psmb6 | inactive: -2.12
GCCGUAUUCAUUAAUAAAGTT against Ash1l | inactive: 2.6
GCCAGUUUGUGUGCAAAAATT against Lrp1 | inactive: 1.06
